One molecule from PMC11542591 can be followed below.

Results are given in words; binding and its absence hold for the method and conditions named. Some entries that bind do so weakly or less than the wild type.

The assay has as its target T1, STRADα (UniProt Q7RTN6).
T1 sequence: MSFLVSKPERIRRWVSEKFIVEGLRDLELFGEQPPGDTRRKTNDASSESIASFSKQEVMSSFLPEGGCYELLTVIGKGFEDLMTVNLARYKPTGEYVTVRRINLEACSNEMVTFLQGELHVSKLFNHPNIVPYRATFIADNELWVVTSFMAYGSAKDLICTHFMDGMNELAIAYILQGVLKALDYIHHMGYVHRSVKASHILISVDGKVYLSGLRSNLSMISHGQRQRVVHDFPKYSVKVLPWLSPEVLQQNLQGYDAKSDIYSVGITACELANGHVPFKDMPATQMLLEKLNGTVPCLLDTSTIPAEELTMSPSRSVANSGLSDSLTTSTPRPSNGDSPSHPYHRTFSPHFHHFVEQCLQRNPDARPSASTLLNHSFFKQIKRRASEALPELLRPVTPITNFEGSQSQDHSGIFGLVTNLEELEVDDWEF
The experiment in a line: cryo-EM structure; purified heterotrimer at 3 μM on Quantifoil Au holey-carbon grids; four datasets (Alpine 120 and 200 keV on Glacios, K3 200 keV on Glacios, K3 300 keV on Krios); no nucleotide added; both purified.

B1: MO25α (protein, UniProt Q9Y376 1-341)
chain: MPFPFGKSHKSPADIVKNLKESMAVLEKQDISDKKAEKATEEVSKNLVAMKEILYGTNEKEPQTEAVAQLAQELYNSGLLSTLVADLQLIDFEGKKDVAQIFNNILRRQIGTRTPTVEYICTQQNILFMLLKGYESPEIALNCGIMLRECIRHEPLAKIILWSEQFYDFFRYVEMSTFDIASDAFATFKDLLTRHKLLSAEFLEQHYDRFFSEYEKLLHSENYVTKRQSLKLLGELLLDRHNFTIMTKYISKPENLKLMMNLLRDKSRNIQFEAFHVFKVFVANPNKTQPILDILLKNQAKLIEFLSKFQNDRTEDEQFNDEKTYLVKQIRDLKRPAQQEA
As for B1, the binding result is “binds”.
